Measured values: PMC7093409
Results are given in words; binding and its absence hold for the method and conditions named. Binding seen in cells or lysates may run through a third protein. Some binding calls cover weakened binding; strength is not graded here.

Molecular target: T1, ELKS1 (glutamic acid/leucine/lysine/serine-rich protein), endogenous (mouse (endogenous in brain and cultured neurons)) (UniProt Q99MI1)
T1 sequence: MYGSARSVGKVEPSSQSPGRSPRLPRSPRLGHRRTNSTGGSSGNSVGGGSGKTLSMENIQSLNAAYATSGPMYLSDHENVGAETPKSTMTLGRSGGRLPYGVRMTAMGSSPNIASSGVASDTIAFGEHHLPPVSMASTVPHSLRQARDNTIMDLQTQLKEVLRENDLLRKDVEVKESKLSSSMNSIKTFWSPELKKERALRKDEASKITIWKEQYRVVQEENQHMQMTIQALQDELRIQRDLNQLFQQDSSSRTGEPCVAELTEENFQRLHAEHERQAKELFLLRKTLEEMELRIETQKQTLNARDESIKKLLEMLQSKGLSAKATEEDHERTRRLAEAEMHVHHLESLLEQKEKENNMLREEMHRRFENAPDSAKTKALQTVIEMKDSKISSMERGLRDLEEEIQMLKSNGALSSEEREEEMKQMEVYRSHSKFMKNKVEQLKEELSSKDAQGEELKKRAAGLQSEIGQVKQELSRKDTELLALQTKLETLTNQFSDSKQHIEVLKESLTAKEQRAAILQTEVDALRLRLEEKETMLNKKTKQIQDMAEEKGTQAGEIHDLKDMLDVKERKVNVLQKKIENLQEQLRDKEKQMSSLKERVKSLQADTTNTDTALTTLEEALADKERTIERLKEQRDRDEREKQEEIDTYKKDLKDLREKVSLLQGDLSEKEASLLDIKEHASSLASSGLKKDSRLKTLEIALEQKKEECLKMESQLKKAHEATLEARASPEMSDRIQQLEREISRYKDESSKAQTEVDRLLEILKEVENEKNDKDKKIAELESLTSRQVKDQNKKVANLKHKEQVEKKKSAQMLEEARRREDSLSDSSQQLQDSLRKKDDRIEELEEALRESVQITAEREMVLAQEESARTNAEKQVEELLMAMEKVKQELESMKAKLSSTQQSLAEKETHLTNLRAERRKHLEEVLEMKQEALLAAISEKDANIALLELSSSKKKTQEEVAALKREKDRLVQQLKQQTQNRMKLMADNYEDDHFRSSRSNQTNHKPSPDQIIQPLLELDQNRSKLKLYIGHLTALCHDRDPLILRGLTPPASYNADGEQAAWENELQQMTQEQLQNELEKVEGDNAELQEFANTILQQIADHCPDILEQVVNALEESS
Test: co-IP; endogenous ELKS1 and CLASP2, mouse brain; which protein was precipitated is not told in the text (Supplementary Fig. 6s)

- binding: binds
B1: CLASP2 (Cytoplasmic linker associated protein 2), endogenous (protein, UniProt Q8BRT1 1-1286)
chain: MRRLICKRICDYKSFDDEESVDGNRPSSAASAFKVPAPKTPGNPVSSARKPGSAGGPKVGGPSKEGGAGAVDEDDFIKAFTDVPSVQIYSSRELEETLNKIREILSDDKHDWDQRANALKKIRSLLVAGAAQYDCFFQHLRLLDGALKLSAKDLRSQVVREACITVAHLSTVLGNKFDHGAEAIVPTLFNLVPNSAKVMATSGCAAIRFIIRHTHVPRLIPLITSNCTSKSVPVRRRSFEFLDLLLQEWQTHSLERHAAVLVETIKKGIHDADAEARVEARKTYMGLRNHFPGEAETLYNSLEPSYQKSLQTYLKSSGSVASLPQSDRSSSSSQESLNRPFSSKWSTANPSTVAGRVSVGGSKANPLPGSLQRSRSDIDVNAAAGAKAHHAAGQAVRSGRLGAGALNPGSYASLEDTSDKMDGTASDDGRVRAKLSTPLVAVGNAKTDSRGRSRTKMVSQSQPGSRSGSPGRVLTTTALSTVSSGAQRVLVNSASAQKRSKIPRSQGCSREASPSRLSVARSSRIPRPSVSQGCSREASRESSRDTSPVRSFQPLGPGYGISQSSRLSSSVSAMRVLNTGSDVEEAVADALLLGDIRTKKKPARRRYESYGMHSDDDANSDASSACSERSYSSRNGSIPTYMRQTEDVAEVLNRCASSNWSERKEGLLGLQNLLKNQRTLSRIELKRLCEIFTRMFADPHGKVFSMFLETLVDFIQVHKDDLQDWLFVLLTQLLKKMGADLLGSVQAKVQKALDITRESFPNDLQFNILMRFTVDQTQTPSLKVKVAILKYIETLAKQMDPRDFTNSSETRLAVSRVITWTTEPKSSDVRKAAQSVLISLFELNTPEFTMLLGALPKTFQDGATKLLHNHLRNTGNGTQSSMGSPLTRPTPRSPANWSSPLTSPTNTSQNTLSPSAFDYDTENMNSEDIYSSLRGVTEAIQNFSFRSQEDMSEPVRRDPKKEDGDTICSGPGMSDPRAGGDAADGSQPALDNKASLLHSMPLHSSPRSRDYNPYNYSDSISPFNKSALKEAMFDDDADQFPDDLSLDHSDLVAELLKELSNHNERIEERKIALYELMKLTQEESFSVWDEHFKTILLLLLETLGDKEPTIRALALKVLKEILRHQPARFKNYAELTVMKTLEAHKDPHKEVVRSAEEAASVLATSISPEQCIKVLCPIIQTADYPINLAAIKMQTKVIERVSKETLNMLLPEIMPGLIQGYDNSESSVRKACVFCLVAVHAVIGDELKPHLSQLTGSKMKLLNLYIKRAQTGSAGADPTADVSGQS
